Measured values: publication PMC7819943, “Rice protein-binding microarrays: a tool to detect cis-acting elements near promoter regions in rice”
Some of the results follow.

target: T1, OsSMF1 (Oryza sativa, UniProt Q6ZLB0 1-436); experiment: protein-binding microarray (RPBM); PBS, 2% BSA, 51.3 ng/ul salmon testes DNA, 50 uM zinc acetate, 200 nM TF, 25 C, 1 h; high values mean tight binding; settings: protein: recombinant; tags: N-terminal polyhistidine and DsRed monomer fusion (pET32a); chain copies: 2; label: CyDye5-dUTP incorporated in the synthesized complementary strand; 3' TTTTT single-stranded linker to array surface; dsDNA, one strand shown
T1 sequence: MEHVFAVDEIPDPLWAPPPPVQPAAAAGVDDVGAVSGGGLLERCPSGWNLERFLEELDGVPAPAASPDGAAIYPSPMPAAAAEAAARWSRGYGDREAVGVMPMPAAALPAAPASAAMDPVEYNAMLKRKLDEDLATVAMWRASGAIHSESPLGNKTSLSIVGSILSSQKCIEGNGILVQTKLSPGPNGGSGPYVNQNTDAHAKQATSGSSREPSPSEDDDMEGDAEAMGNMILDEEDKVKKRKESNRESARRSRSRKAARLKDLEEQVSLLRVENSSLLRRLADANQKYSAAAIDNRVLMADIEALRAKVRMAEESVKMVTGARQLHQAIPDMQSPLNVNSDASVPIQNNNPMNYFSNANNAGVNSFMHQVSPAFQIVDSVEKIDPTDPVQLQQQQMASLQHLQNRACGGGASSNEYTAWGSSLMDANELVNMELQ
Summary of the method: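 For the binding signal, per-feature fluorescence intensity was read in arbitrary units on an Axon 4000B scanner. Before scanning, a 2% BSA-blocked custom Agilent array made double-stranded with Cy5-dUTP was washed after 1 h at 25 °C with 200 nM protein and 50 µM zinc acetate. The proteins were Ni–NTA-purified transcription factors with N-terminal polyhistidine and DsRed fusions, expressed in E. coli BL21-CodonPlus.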

| Sequence | binding signal |
| --- | --- |
| CGAGATGCCCTGCGCGTGGCATTTTATATTTTATTACTGCCGGAGTCACCTAGTGCAG | 3680 fluorescence intensity (a.u.) |
| GTCTTCATCATCAAGTTTCACATCTAACTTACTTAGATCCCGGAGTCACCTAGTGCAG | 3390 fluorescence intensity (a.u.) |
| CCGTCTTCTTCCTCCACGTTCCTATCCATGGCGCCAGTTCCGGAGTCACCTAGTGCAG | 41400 fluorescence intensity (a.u.) |
| GAGGGAGTAATTGCTAGTGGATGATGATGTGACATGCTTGCGGAGTCACCTAGTGCAG | 3950 fluorescence intensity (a.u.) |
| GCAAACTAAGCATGTAAGATGACGTCATCAGTTGATGAATCGGAGTCACCTAGTGCAG | 13500 fluorescence intensity (a.u.) |
| TTTAATTTATGTTGGGTGGACGTGGATGCGCATGATGAGCCGGAGTCACCTAGTGCAG | 4780 fluorescence intensity (a.u.) |
| TTCATTGACCGAGAACGATAGCACGCATCACATCAGCATCCGGAGTCACCTAGTGCAG | 3250 fluorescence intensity (a.u.) |
| GGTCCCGTCAGGGAAGGACCCCACGTCCTCGGTTCCATTCCGGAGTCACCTAGTGCAG | 3910 fluorescence intensity (a.u.) |
| CCCTGGATTTCCGTGCCAACGTTTGACTGTCCGTCTTATACGGAGTCACCTAGTGCAG | 4290 fluorescence intensity (a.u.) |
| TAGATGTTACTCCCTCCGTCCCTTCGTCCTAAAATGTAGCCGGAGTCACCTAGTGCAG | 35900 fluorescence intensity (a.u.) |
| CTGCTACATGTGGCCGGTCGGTTGCAATGGTTGTAATTATCGGAGTCACCTAGTGCAG | 3220 fluorescence intensity (a.u.) |
| GGTGGTAATCTTGTGATGTGACTCAGGAATGGCGCACAAACGGAGTCACCTAGTGCAG | 6750 fluorescence intensity (a.u.) |
| GCTGGGGTGTCCATCACATGGACGTCAAGTCGGCATTTCTCGGAGTCACCTAGTGCAG | 3590 fluorescence intensity (a.u.) |
| GGGCCGGTCTTCCATGCAGACGTGTACAAGTGCCTTGCACCGGAGTCACCTAGTGCAG | 9030 fluorescence intensity (a.u.) |
| ATGCATGAGGTAGATGAGTGCGTATGTCACACAAATTAGGCGGAGTCACCTAGTGCAG | 4330 fluorescence intensity (a.u.) |
| CATGAACGTCCGCCTACCGGAAGGGTACGTGATACGACCACGGAGTCACCTAGTGCAG | 3420 fluorescence intensity (a.u.) |
| ATGTGTTTATAGCTTGCTTATAGTCTGTTGTTGTATCTGCCGGAGTCACCTAGTGCAG | 8040 fluorescence intensity (a.u.) |
| GCACGTGATGCTGCATGTTCCGTGAACGTGTCAACTTTGTCGGAGTCACCTAGTGCAG | 5890 fluorescence intensity (a.u.) |
| GCCGAGTCAGCATGGGTTTCAGTTAAGAACGCGCGAACTCCGGAGTCACCTAGTGCAG | 30000 fluorescence intensity (a.u.) |
| ATTAACCATGTTAAATGTGTTTGCACACGAGACACGACTACGGAGTCACCTAGTGCAG | 21700 fluorescence intensity (a.u.) |
| TGGGAGGCGTCAGGCCCCGGAATGTCACGTGAGCCTTCAACGGAGTCACCTAGTGCAG | 3160 fluorescence intensity (a.u.) |
| GCACAGGCTTGACACCAGTCGAGCCGAGCCGAAACCCCGTCGGAGTCACCTAGTGCAG | 3270 fluorescence intensity (a.u.) |
| GAAAGAAAAGAAAAGAAACTGAAAGCGTCACGTGCACGGTCGGAGTCACCTAGTGCAG | 3860 fluorescence intensity (a.u.) |
| AGAATCTCACAGATGCAACTAGCAAAACGACTAACTGGTTCGGAGTCACCTAGTGCAG | 6980 fluorescence intensity (a.u.) |
| CCATCTCCGACGAATGATGCTTTGACACTTAATGCTGCGTCGGAGTCACCTAGTGCAG | 3350 fluorescence intensity (a.u.) |
| GTGTATGCACGTTTATAGGTGTGAGTGTATGTTGTAAGCGCGGAGTCACCTAGTGCAG | 3670 fluorescence intensity (a.u.) |
| TGAATTGATCAAGTGCTAATAGAGTAGCAGGTCAATGCAACGGAGTCACCTAGTGCAG | 3170 fluorescence intensity (a.u.) |

| Sequence | binding signal |
| --- | --- |
| TGAGCATGCTGACGAGCGCCGGAGTCGTGTACGAGGTGATCGGAGTCACCTAGTGCAG | 4540 fluorescence intensity (a.u.) |
| AATAGCAGCCATCGCGGCCTTTATAAGCATCCACGCACGACGGAGTCACCTAGTGCAG | 3250 fluorescence intensity (a.u.) |
| CAGTTCTTGTGTGTTTGTGTCCACCGAGTAAATACAAGTGCGGAGTCACCTAGTGCAG | 3440 fluorescence intensity (a.u.) |
| GTGACTGATGAACATGATGTTGGATGTATGGGATGGCACGCGGAGTCACCTAGTGCAG | 3740 fluorescence intensity (a.u.) |
| AAATGCTGTTTCAGTAGAGGCTGAAATTTATGTTGCTGATCGGAGTCACCTAGTGCAG | 3670 fluorescence intensity (a.u.) |
| CGGGCGACGCCGGTGCTGGCGCCAGCGTGGGGCCGCGACGCGGAGTCACCTAGTGCAG | 4780 fluorescence intensity (a.u.) |
| CGGTAGACATATTTGATGACATAATCCAAAGTAACTATATCGGAGTCACCTAGTGCAG | 3690 fluorescence intensity (a.u.) |
| TCCCGGCCGTGACCAGCTCTGTCGTCACGCTCGTTGTCGTCGGAGTCACCTAGTGCAG | 7650 fluorescence intensity (a.u.) |
| ACTTGGTTCAAGATGTGCCATGTGTGCCGTGTGTTGCCTTCGGAGTCACCTAGTGCAG | 4140 fluorescence intensity (a.u.) |
| CCCGTGGCCGCGCCTCCGCCGGCGAATCCACGTCGCCGTCCGGAGTCACCTAGTGCAG | 5270 fluorescence intensity (a.u.) |
| TGTTCCCCGCTACGTCAACTGTGAGATCTGATACGATGGACGGAGTCACCTAGTGCAG | 8540 fluorescence intensity (a.u.) |
| CATAGCAACCACAACCGCCACCTCCTCTAACCAACCGAAGCGGAGTCACCTAGTGCAG | 3430 fluorescence intensity (a.u.) |
| AGCCCAATTCGTTGTACCTCAATCAACTTGGAATAAGAACCGGAGTCACCTAGTGCAG | 3180 fluorescence intensity (a.u.) |
| TTGCTGTGTCTTTGTATTTTGATTTCGCCTTAACGAGGGTCGGAGTCACCTAGTGCAG | 32300 fluorescence intensity (a.u.) |
| AAACTAGCAGGCACAAATTAAGCAAATGATCCATCATCATCGGAGTCACCTAGTGCAG | 3160 fluorescence intensity (a.u.) |
| GATAAGGCGCGTGGCACAGACCATTTTAATTTCCACATATCGGAGTCACCTAGTGCAG | 4770 fluorescence intensity (a.u.) |
| GACCGGTCAACCCGATAAGGTGTGTATAAATACATGGCGCCGGAGTCACCTAGTGCAG | 3190 fluorescence intensity (a.u.) |
| AAAATCATATACTTGTGCTGACGTCACGTCATCACTGCATCGGAGTCACCTAGTGCAG | 20500 fluorescence intensity (a.u.) |
| CATGCATCCAAATGACACGACACACTTAGATTCTAATAGGCGGAGTCACCTAGTGCAG | 5590 fluorescence intensity (a.u.) |
| CTAATAATTAATTGTTGTTGCATGAGAGCCAACACGTACGCGGAGTCACCTAGTGCAG | 4220 fluorescence intensity (a.u.) |
| AGGACAACGCAGCTTGCTGGCTCAACCGCTCACGCACGTCCGGAGTCACCTAGTGCAG | 10500 fluorescence intensity (a.u.) |
| AACACACTAGTAATACGAATCTGAATATGGTACTAGGATACGGAGTCACCTAGTGCAG | 64200 fluorescence intensity (a.u.) |
| CGAAGGAAGATCTAGCCGTCCACGTGTCCCAGCGTGGCTGCGGAGTCACCTAGTGCAG | 17000 fluorescence intensity (a.u.) |
| CCGGATGCATGCGCGTAGCGTATGTGACGGCATTACGGAACGGAGTCACCTAGTGCAG | 3390 fluorescence intensity (a.u.) |
| GGCGCCAGCACCAGCAGCAGCGGCCCATCACCACGCGGACCGGAGTCACCTAGTGCAG | 4580 fluorescence intensity (a.u.) |
| GTCCAGATTCGTTGTACTAGAATATGTCAGATCCAGTCCTCGGAGTCACCTAGTGCAG | 3410 fluorescence intensity (a.u.) |
| AATGGAACACTCGTTCTTTATATAAAATGTCAGCAACAGTCGGAGTCACCTAGTGCAG | 38400 fluorescence intensity (a.u.) |

Pulled one by one from the list above:

| Sequence | binding signal |
| --- | --- |
| CGAAGGAAGATCTAGCCGTCCACGTGTCCCAGCGTGGCTGCGGAGTCACCTAGTGCAG | 17000 fluorescence intensity (a.u.) |
| GACCGGTCAACCCGATAAGGTGTGTATAAATACATGGCGCCGGAGTCACCTAGTGCAG | 3190 fluorescence intensity (a.u.) |
| CATAGCAACCACAACCGCCACCTCCTCTAACCAACCGAAGCGGAGTCACCTAGTGCAG | 3430 fluorescence intensity (a.u.) |
